Laboratory results taken from PubChem BioAssay AID493014 (National Center for Advancing Translational Sciences (NCATS), 2011).
The other results are listed elsewhere or left out. These are further read-outs of the screen, such as a control signal, another cell line or another target. No call is given for them. Most of these compounds were active or inconclusive in the main read-out, so they are no random draw. The note in brackets gives the kind of curve behind each potency; many fits are weak.

Test: qHTS Assay to Find Inhibitors of Chronic Active B-Cell Receptor Signaling
Settings: ABC-DLBCL IkBa-CBG/CBR reporter, luminescence ratio (green luciferase fused to IkBa over red control in TMD8 lymphoma cells), 4 h
Summary of the method: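 TMD8 human ABC-DLBCL cells with doxycycline-inducible IκBα–green luciferase fusion and unfused red luciferase, in 0.5% FBS medium; compounds up to 46 uM, 4 h at 37C. Green/red luminescence ratio, filter-overlap corrected, fitted to concentration-response curves.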

[1] = measured here: CBR red luminescence, cell number
[2] = measured here: IkBa-CBG green luminescence

Compound | AC50 [1] | AC50 [2]
Cc1noc(C)c1C(=O)N1CCN(CCc2ccccc2)CC1 | 0.731 µM [rising, full curve, poor fit] | –
O=C(NC(CCl)c1ccccc1)c1ccc(Cl)cc1 (stereo unspecified) | 8.91 µM [rising, partial curve, poor fit] | –
CCC(=O)NC(=S)Nc1ccc(-c2nc3ccccc3s2)cc1 | 0.0517 µM [rising, full curve, poor fit] | –
COc1cc(OC)cc(C(=O)NCCOC23CC4CC(CC(C4)C2)C3)c1 | 17.8 µM [falling, single point] | –
COc1ccc(/C(N)=N/OC(=O)c2c(-c3ccccc3Cl)noc2C)cc1OC | 20 µM [rising, partial curve, poor fit] | –
CC(NC(=O)C(=O)N/N=C\c1ccc([N+](=O)[O-])cc1)c1ccccc1 (stereo unspecified) | 0.794 µM [rising, full curve, poor fit] | –
CCOC(=O)c1ccc(N2C(=O)C3C(C2=O)C(C(=O)c2ccc(Cl)cc2)N2CCCC32)cc1 (stereo unspecified) | 3.26 µM [falling, partial curve, poor fit] | –
COc1ccc(CCNC(=O)c2cc3c(=O)n(C)c4ccccc4c3n2C)cc1OC | 22.4 µM [rising, partial curve, poor fit] | –
O=C(O)Cn1cc(C(=S)N2CCOCC2)c2ccccc21 | 0.00651 µM [falling, full curve, poor fit] | –
CCOC(=O)c1c(C)n(C)c2ccc(OCC(O)Cn3c(C)nc4ccccc43)cc12 (stereo unspecified) | 3.26 µM [falling, full curve, poor fit] | –
CCOc1ccc(C(=O)O/N=C(\N)c2ccccn2)cc1 | 2.82 µM [falling, full curve] | –
O=[N+]([O-])c1ccc(Cl)c(S(=O)(=O)Nc2cccc(-c3ccc(N4CCCC4)nn3)c2)c1 | – | 6.51 µM [rising, partial curve, poor fit]
Cn1nc(C(=O)Nc2ccc3c(c2)OCCO3)cc1C(=O)O | 11.2 µM [falling, partial curve, poor fit] | –
COC(=O)C1=CN(Cc2ccccc2)C=C(C(=O)OC)C1c1ccc(O)c(OC)c1 | 6.31 µM [falling, single point] | –
Cn1cc(Br)c(C(=O)NNC(=O)c2ccc(Cl)cc2)n1 | 3.66 µM [falling, partial curve] | –
O=C(Nc1cccc(C(F)(F)F)c1)c1ccc2nc(N3C(=O)CCC3=O)sc2c1 | 35.5 µM [falling, single point] | –
CCC(=O)Nc1ccc(C(=O)CSc2nnc(-c3ccc(O)cc3)n2CC2CCCO2)cc1 (stereo unspecified) | 0.651 µM [falling, partial curve, poor fit] | –
Cc1ccc2c(c1)N(CC(=O)N1CCCc3ccccc31)C(=O)C(C)O2 (stereo unspecified) | 35.5 µM [rising, single point] | –
CCOC(=O)C1CCN(C(=O)CCN2C(=O)C3C4C=CC(C4)C3C2=O)CC1 (stereo unspecified) | 2.31 µM [rising, partial curve, poor fit] | –
CCc1ccc(N/C(SC)=C(/C#N)C(N)=O)cc1 | 0.708 µM [falling, full curve, poor fit] | –
CCN(CC)CC(=O)Nc1scc2c1c(=O)oc1ccccc12 | 2.82 µM [rising, full curve, poor fit] | –

Retrieved by structure from the entries so far (4):
Compound | AC50 [1] | AC50 [2]
COc1cc(OC)cc(C(=O)NCCOC23CC4CC(CC(C4)C2)C3)c1 | 17.8 µM [falling, single point] | –
Cn1nc(C(=O)Nc2ccc3c(c2)OCCO3)cc1C(=O)O | 11.2 µM [falling, partial curve, poor fit] | –
COc1ccc(/C(N)=N/OC(=O)c2c(-c3ccccc3Cl)noc2C)cc1OC | 20 µM [rising, partial curve, poor fit] | –
Cc1ccc2c(c1)N(CC(=O)N1CCCc3ccccc31)C(=O)C(C)O2 (stereo unspecified) | 35.5 µM [rising, single point] | –

Carrying on.

Compound | AC50 [1] | AC50 [2]
CCc1nc2ccccc2c(C(=O)OCC(=O)N(CC(C)C)c2c(N)n(Cc3ccccc3)c(=O)[nH]c2=O)c1C | 29.1 µM [falling, single point] | –
CCn1nc(C)c(/C=N\NC(=O)c2ccc3c(c2)OCO3)c1C | 8.2 µM [falling, partial curve] | –
COc1cc(CCC(=O)NCc2ccc3c(c2)CCN3C(=O)c2ccc(F)cc2)cc(OC)c1OC | 6.31 µM [rising, single point] | –
O=C(NCc1ccccc1)c1ccc(-c2ccccc2C(F)(F)F)o1 | 29.1 µM [falling, single point] | –
O=C(N/N=C/c1ccc2cccnc2c1)c1ccco1 | 10 µM [falling, partial curve, poor fit] | –
CCN(CC)S(=O)(=O)c1ccc(NC2c3ccccc3C(=O)N2Cc2ccco2)cc1 (stereo unspecified) | 35.5 µM [falling, single point] | –
Cn1c(SCc2ccccc2F)nnc1-c1ccccn1 | 35.5 µM [falling, single point] | –
CCC(C)NC(=O)c1cc2c(=O)n3cccc(C)c3nc2s1 (stereo unspecified) | 0.282 µM [rising, full curve, poor fit] | –
FC(F)(F)c1cc(-c2cccs2)nc2ncnn12 | 3.98 µM [rising, full curve] | –
Cc1ccnc(NC(=O)C2CCN(S(=O)(=O)c3ccc4c(c3)CC(C)N4C(=O)C3CCC3)CC2)c1 (stereo unspecified) | 25.1 µM [falling, single point] | –
COC(=O)c1cc(C(=O)N2CCN(c3cccc(Cl)c3)CC2)cc([N+](=O)[O-])c1 | 10 µM [rising, partial curve] | 11.2 µM [falling, partial curve]
COC(=O)Nc1nc(C)c(C(=O)c2ccccc2)s1 | 5.8 µM [falling, single point] | –
CCCCn1c(O)c(/C=C/C=C/C=Nc2ccccc2)sc1=S | 12.6 µM [falling, partial curve, poor fit] | –
O=C1OCCN1C(=O)[C@H]1[C@H](c2ccc(Cl)cc2)C(c2ccc(F)cc2)=NN1c1ccc(Br)cc1 | 6.51 µM [rising, full curve] | –
Cc1ccc(S(=O)(=O)N(C)C)cc1NC(=O)COC(=O)/C(=C/c1ccc(F)cc1)c1cccs1 | 29.1 µM [falling, single point] | –
C/C(=N\NC(=O)c1c(Br)c(C)nn1C)c1cccc(NC(=O)C2CCC2)c1 | 5.01 µM [falling, partial curve] | –
COc1ccc(C2=Nn3c(nnc3-c3ccccc3F)SC2)cc1OC1CCCC1 | – | 16.4 µM [falling, partial curve, poor fit]
COc1ccc(/C=N/NC(=O)c2cc(=O)[nH]c3ccccc23)cc1OC | 12.6 µM [rising, single point] | –
O=C1C(=O)N(CNc2ccccn2)c2ccccc21 | 12.6 µM [rising, single point] | –
CCOC(=O)c1c(NC(=S)NC)sc2c1CCCC2 | 0.631 µM [falling, full curve, poor fit] | –
CCC1CCC2(CC1)NC(=O)N(CC(=O)Nc1cccc(S(=O)(=O)N(C)c3ccccc3)c1)C2=O (stereo unspecified) | 18.4 µM [falling, single point] | –

Compound | AC50 [1] | AC50 [2]
Cc1cnn(C(=S)NCc2ccc(Cl)cc2)c1 | 29.1 µM [falling, single point] | –
NC(=S)N/N=C/c1c[nH]c2ccc(OCc3ccccc3)cc12 | 6.31 µM [falling, partial curve] | –
O=C(CSc1nnc2ccccn12)Nc1ccc2c(c1)OCCO2 | 3.55 µM [falling, single point] | –
Cc1c([N+](=O)[O-])c(N)nn1C | 14.1 µM [rising, partial curve, poor fit] | –
O=S(=O)(Cc1nc2ccccc2s1)c1ccccc1 | 5.8 µM [falling, single point] | –
Cc1ccc(Nc2c(-c3ccccn3)nc3cccc(C)n23)cc1 | 35.5 µM [falling, single point] | –
CC[N+](CC)(CC=C(C)C)CC(=O)OC | 11.2 µM [rising, partial curve] | –
COc1cc(S(=O)(=O)n2ccc(C)n2)c(OC)cc1Cl | 7.31 µM [rising, partial curve, poor fit] | –
Nc1ccccc1C(=O)Nc1nccs1 | – | 3.98 µM [rising, full curve, poor fit]
O=C(CSc1ncnc2c1nnn2Cc1ccccc1)NC1CCCC1 | 2.24 µM [falling, partial curve, poor fit] | –
COc1cc2c(cc1OC)-c1cc(NC3CCCC3)nc(=O)n1CC2 | – | 12.6 µM [falling, partial curve, poor fit]
O=C(NCc1cc2ccccc2[nH]1)c1ccccc1F | 12.6 µM [falling, partial curve] | –
O=C(CCc1ccccc1)N/N=C/c1cc(Br)ccc1O | 2.91 µM [rising, full curve, poor fit] | –
Cc1cc(C)c2c(c1)/C(=N/NC(=O)c1cc(C)oc1C)CCC2 | 2.06 µM [falling, partial curve] | –
COCC(C)NC(=O)c1cc(-c2cccc(OC)c2)on1 (stereo unspecified) | 4.47 µM [falling, partial curve] | 31.6 µM [rising, partial curve, poor fit]
Cc1ccc(NC(=O)C(=O)Nc2ccc(C)cn2)nc1 | 0.794 µM [falling, full curve] | –
CC1=NN(C(=O)c2ccco2)C(O)(c2ccccc2)C1 (stereo unspecified) | 31.6 µM [falling, single point] | –
CCC1=C(OC(=O)N(CC)CC)N2C(=O)OC(=NCC3CC3)[C@]2(Cc2ccccc2)[C@H]2C1=CC[C@H]1C(=O)N(c3ccccc3)C(=O)[C@H]12 | 35.5 µM [falling, single point] | –
CC(=O)N1N=C2/C(=C/c3ccccc3)CCCC2C1c1ccccc1 (stereo unspecified) | 15.8 µM [rising, single point] | –
CCOC(=O)CN1C(=O)S/C(=C\c2ccc3c(c2)OCO3)C1=O | 11.2 µM [rising, single point] | –
O=C(NCCc1ccccc1)c1cnc(Cl)c(Cl)c1 | 28.2 µM [falling, single point] | 14.1 µM [rising, single point]
